Source: patent US8349215B2, “Corrosion inhibitors having increased biological degradability and minimized toxicity” (Clariant Finance (BVI) Limited, priority 2008, dated 2013)

Columns and labels:
[1] = Shell wheel test (corrosion inhibition); conditions: saltwater/petroleum mixture, pH 3.5, 70° C., 24 hours, 40 rpm; 50 ppm of a 40% solution of the inhibitor; mass decrease vs blank
[2] = LPR test (test conditions analogous to ASTM D 2776)

Q: Which Ø % protection [1] does the source give for `CCCCCCCC/C=C\CCCCCCCCN1CC(C(=O)O)CC1=O.NCCO` (centres unmarked) [Compound from example 5, N-oleyl-5-oxopyrrolidine-3-carboxylic acid monoethanolammonium salt] here?
A: 90%

Q: And the “Protection after 10 min” value [2]?
A: 91%

Q: And the “Protection after 30 min” value [2]?
A: 95%

Q: What about the “Protection after 60 min” value [2] of the same compound?
A: 99%

Q: With `CCCCCCCCN1CC(C(=O)O)CC1=O.OCCN(CCO)CCO` (centres unmarked) [Compound from example 2, N-octyl-5-oxopyrrolidine-3-carboxylic acid triethanolammonium salt] as the compound, how does the Ø % protection [1] read?
A: 69%

Q: What about the “Protection after 10 min” value [2] of the same compound?
A: 59%

Q: What about the “Protection after 30 min” value [2] of the same compound?
A: 76%

Q: What about the “Protection after 60 min” value [2] of the same compound?
A: 81%

Q: Which results are given for “N-oleyl-5-oxopyrrolidine-3-carboxylic acid 2-(2-hydroxyethoxy)ethylammonium salt [Compound from example 4]”?
A: Ø % protection [1]: 89%; Protection after 10 min [2]: 90%; Protection after 30 min [2]: 96%; Protection after 60 min [2]: 99%

Q: With “N-cocoyl-5-oxopyrrolidine-3-carboxylic acid N,N-diethyl-(2-hydroxyethyl) ammonium salt [Compound from example 3]” as the compound, how does the Ø % protection [1] read?
A: 90%

Q: What about the “Protection after 10 min” value [2] of the same compound?
A: 91%

Q: What about the “Protection after 30 min” value [2] of the same compound?
A: 96%

Q: And the “Protection after 60 min” value [2]?
A: 99%

Q: For `CCCCCCCC/C=C\CCCCCCCCN.CCCCCCCC/C=C\CCCCCCCCN1CC(C(=O)O)CC1=O` (centres unmarked) [Comparative 3, N-oleyl-5-oxopyrrolidine-3-carboxylic acid, salt with oleylamine, reference compound], which Ø % protection [1] is on record?
A: 55%

Q: What about the “Protection after 10 min” value [2] of the same compound?
A: 1%

Q: And the “Protection after 30 min” value [2]?
A: 8%

Q: And the “Protection after 60 min” value [2]?
A: 17%

Q: What does the source list for `CCCCCCCC/C=C\CCCCCCCCN1CC(C(=O)O)CC1=O` (centres unmarked) [Comparative 2, N-oleyl-5-oxopyrrolidine-3-carboxylic acid, reference compound]?
A: Ø % protection [1]: 60%; Protection after 10 min [2]: 2%; Protection after 30 min [2]: 10%; Protection after 60 min [2]: 23%

Q: With `CCCCN1CC(C(=O)O)CC1=O.CCCCNCCCC` (centres unmarked) [Comparative 4, N-butyl-5-oxopyrrolidine-3-carboxylic acid, salt with dibutylamine, reference compound] as the compound, how does the Ø % protection [1] read?
A: 21%

Q: What about the “Protection after 10 min” value [2] of the same compound?
A: 4%

Q: And the “Protection after 30 min” value [2]?
A: 12%

Q: And the “Protection after 60 min” value [2]?
A: 25%

Q: For `CCCCCCCCN1CC(C(=O)O)CC1=O.NCCO` (centres unmarked) [Compound from example 1, N-octyl-5-oxopyrrolidine-3-carboxylic acid monoethanolammonium salt], which Ø % protection [1] is on record?
A: 73%

Q: And the “Protection after 10 min” value [2]?
A: 65%

Q: And the “Protection after 30 min” value [2]?
A: 79%

Q: What about the “Protection after 60 min” value [2] of the same compound?
A: 86%
